Measurements from PubChem BioAssay AID504834 (National Center for Advancing Translational Sciences (NCATS), 2011).
The campaign covered roughly 320,000 compounds. About 22,000 (6.9%) were called active. Inconclusive results, whose numbers are uncertain, are shown with a selection of clear calls. The call rests on the fitted dose curve; in most records, active means well fitted inhibition curve with a large enough effect; inconclusive means small, poorly fitted or top-dose-only effect, or another doubt; inactive means no such curve, though single readings can be large or run the other way. Where the call is inconclusive, the potency comes from a doubtful curve fit.
Potency means the concentration at half of the fitted maximal effect.

Experiment: Primary qHTS for delayed death inhibitors of the malarial parasite plastid, 96 hour incubation
Conditions: P. falciparum luciferase reporter growth; series mostly up to 28.7 µM
Outline: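 Compounds incubated with erythrocytes infected by luciferase-expressing P. falciparum (2% hematocrit, 0.05% parasitemia final) for 96 hours, 37 C in 5% CO2. Growth inhibition scored as decreased luciferase luminescence.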
For `COc1ccc(-n2c(C)cc(/C=C3/SC(=O)N(CC(=O)N4CCOCC4)C3=O)c2C)cc1`, the Potency was inconclusive: 9.28 µM [inhibitor, single point]. For `COc1cc2c(cc1OC)C(c1ccc(Br)cc1)CC(=O)N2` (configuration not stated), the Potency was active: 5.22 µM. In the case of `CCCOc1ccc(N2C(=O)CC(N(CCc3ccc(OC)c(OC)c3)C(=O)c3ccccc3)C2=O)cc1` (configuration not stated), the Potency is reported as “inactive”. In the case of `Cc1ccccc1OCC(=O)OCC(=O)Nc1ccc2c(c1)OCCO2`, the Potency is reported as “inactive”. With `N/C(Cc1ccc(Cl)cc1)=N\OC(=O)c1cccc2ccccc12` the Potency was inconclusive: 2.33 µM [inhibitor, partial curve, poor fit]. In the case of `COc1cccc(C(=O)Nc2ccc(NC(=O)c3cc4ccccc4o3)c(OC)c2)c1`, the Potency is reported as “inactive”. With `COc1ccc(OC)c(NC(=O)c2cc3sccc3n2C)c1` the Potency was “inactive”. With `CCOc1ccc(C(=O)CC(Sc2ccc(C)cc2)C(=O)O)cc1` (configuration not stated) the Potency was “inactive”. In the case of `O=C(NCc1ccco1)c1ccc([N+](=O)[O-])o1`, the Potency is reported as inconclusive: 0.262 µM [inhibitor, full curve, poor fit]. With `Cc1ccc(Cc2c(C)nc3nc(SCC(=O)NCCCN4CCCC4)nn3c2C)cc1` the Potency was inconclusive: 7.38 µM [inhibitor, partial curve, poor fit]. With `Cc1cc(-c2ccc(Br)s2)nc(-n2cccc2)n1` the Potency was “inactive”. In the case of `CSc1ccc(S(=O)(=O)N2CCC(C(=O)Nc3ccccc3C(F)(F)F)CC2)cc1`, the Potency is reported as inconclusive: 2.94 µM [inhibitor, partial curve]. For `O=C(N/N=C/c1cccc(Oc2ccccc2)c1)c1cccc(O)c1`, the Potency was inconclusive: 9.28 µM [inhibitor, single point]. In the case of `NNC(=O)COc1ccc(-c2nccc(-c3ccc(F)cc3)n2)cc1`, the Potency is reported as active: 11.7 µM. In the case of `COc1ccc(/C=C2\SC(N3CCCCC3)=NC2=O)cc1OC`, the Potency is reported as “inactive”. In the case of `O=C(O)CC(c1ccc(OC2CCCC2)cc1)N1C(=O)c2ccccc2C1=O` (configuration not stated), the Potency is reported as inconclusive: 2.94 µM [inhibitor, full curve]. With `O=C(CCC1CCCC1)N=C1SC2CS(=O)(=O)CC2N1c1ccccc1F` (configuration not stated) the Potency was inconclusive: 18.5 µM [inhibitor, single point]. In the case of `COc1cccc(C(=O)Nc2cccc3ccccc23)c1`, the Potency is reported as “inactive”. For `C=C(C)c1cccc(C(C)(C)NC(=O)Nc2ccc(Cl)cn2)c1`, the Potency was inconclusive: 18.5 µM [inhibitor, single point]. In the case of `NNC(=O)c1ccc(COc2ccc3ccccc3c2)cc1`, the Potency is reported as inconclusive: 18.5 µM [inhibitor, single point]. In the case of `COc1cccc(CNC(=O)c2cc(S(=O)(=O)N3CCOCC3)ccc2N2CCCC2)c1`, the Potency is reported as inconclusive: 10.4 µM [inhibitor, single point]. With `Nc1nc(SCC(=O)Nc2ccc(OCc3ccccc3)cc2)n[nH]1` the Potency was “inactive”. With `CCOC(=O)Cc1csc(NS(=O)(=O)c2cccc([N+](=O)[O-])c2)n1` the Potency was “inactive”. In the case of `COc1ccc(CNC(=O)CN(C(=O)c2snc(C(N)=O)c2N)c2ccc(F)cc2)cc1`, the Potency is reported as “inactive”. In the case of `N#Cc1ccccc1CSc1ccc(-c2nc3ccccc3[nH]2)cn1`, the Potency is reported as inconclusive: 18.5 µM [inhibitor, single point]. With `O=C(CCN1CCN(c2ccccc2)CC1)Nc1ccc(OCc2ccccc2)cc1` the Potency was inconclusive: 13.1 µM [inhibitor, single point]. In the case of `Cc1ccc(OCCn2cccc2/C=C2/C(=O)NC(=O)N(Cc3ccco3)C2=O)cc1`, the Potency is reported as inconclusive: 13.1 µM [inhibitor, partial curve, poor fit]. In the case of `C=CCn1c(SCc2ccccc2)nc2scc(-c3ccc(C)o3)c2c1=O`, the Potency is reported as “inactive”. In the case of `CCN(c1ccc(OC)cc1)S(=O)(=O)c1nnc(NC(=O)CC(C)C)s1`, the Potency is reported as inconclusive: 18.5 µM [inhibitor, single point]. For `CCOCCNC(=O)c1ccccc1C(=O)NCCOCC`, the Potency was inconclusive: 18.5 µM [inhibitor, partial curve, poor fit]. In the case of `Cc1cc(C(=O)Nc2ccccc2)nn1C(C)(C)C`, the Potency is reported as “inactive”. For `Cc1cc2c3c(c1C)C1(C(=O)N3C(C)(C)CC2C)C(C#N)=C(N)Oc2cc(O)ccc21` (configuration not stated), the Potency was active: 10.4 µM. In the case of `Cc1cc(C(=O)COC(=O)c2ccc(O)cc2O)c(C)n1-c1ccc(OC(F)F)cc1`, the Potency is reported as inconclusive: 5.86 µM [inhibitor, partial curve]. In the case of `CCOC(=O)c1sc(SCC(=O)Nc2ccc(N(C)C)cc2)nc1N`, the Potency is reported as inconclusive: 8.28 µM [inhibitor, partial curve]. In the case of `CCc1nc(SCc2ccc(F)cc2)[nH]c(=O)c1C#N`, the Potency is reported as “inactive”. In the case of `CC(C)=CCC/C(C)=C/CC/C(C)=C/CC/C(C)=C/CC1=C(C)C(=O)c2ccccc2C1=O`, the Potency is reported as active: 5.22 µM. For `O=C(NC(Cc1ccc(O)cc1)C(=O)O)/C(=C/c1ccccc1)NC(=O)c1ccccc1` (configuration not stated), the Potency was active: 11.7 µM. For `CCC(=NCCCN1CCOCC1)c1c(O)n(Cc2ccccc2)c(=O)[nH]c1=O`, the Potency was inconclusive: 10.4 µM [inhibitor, single point]. For `Clc1ncccc1-c1nnn(-c2ccccc2)n1`, the Potency was “inactive”. In the case of `CCn1cc(CN2CCC(n3nccc3NC(=O)CCCc3ccccc3)CC2)c(C)n1`, the Potency is reported as “inactive”. In the case of `O=C(O)CN1CCN(Cc2ccc(F)cc2Cl)C1=O`, the Potency is reported as active: 8.28 µM. In the case of `O=C(c1ccc2c(c1)OCO2)C1CCCN(Cc2cn[nH]c2-c2ccccc2)C1` (configuration not stated), the Potency is reported as inconclusive: 13.1 µM [inhibitor, single point]. For `Cc1cc(S(=O)(=O)N2CCC3(CC2)OCCO3)c(C)cc1Cl`, the Potency was “inactive”. For `Cc1ccc(C)c(-n2nnnc2SCC(=O)c2ccc3c(c2)NC(=O)CO3)c1`, the Potency was “inactive”. With `Cc1ccc(O)c(C(=O)c2cc(C(=O)NCc3ccccc3)c(=O)n(Cc3ccccc3)c2)c1` the Potency was inconclusive: 1.17 µM [inhibitor, full curve, poor fit]. With `Cc1ccc(NC(=O)N2CCCC2C(=O)Nc2ccc3c(c2)OCO3)cc1` (configuration not stated) the Potency was “inactive”. For `O=C(NCC(=O)N(Cc1cccs1)C(C(=O)NC1CCCC1)c1ccncc1)c1ccco1` (configuration not stated), the Potency was inconclusive: 8.28 µM [inhibitor, partial curve, poor fit]. For `CCC1CCCCN1CCCNC(=O)CNC(=O)c1nn(-c2ccc(OC)c(Cl)c2)c(=O)c2ccccc12` (configuration not stated), the Potency was inconclusive: 7.38 µM [inhibitor, partial curve, poor fit]. For `CC(=O)CCc1c[nH]c2c(C(=O)O)cccc12`, the Potency was active: 11.7 µM. In the case of `Cc1cccc(/C=N/NC(=O)c2cc(C)nc3ccccc23)n1`, the Potency is reported as “inactive”. In the case of `COc1ccccc1NS(=O)(=O)c1cc(NC(=O)c2ccc(=O)[nH]c2)ccc1N1CCOCC1`, the Potency is reported as active: 11.7 µM. In the case of `O=C(CCC(=O)N1CCN(S(=O)(=O)c2ccc3ccccc3c2)CC1)NCC(F)(F)F`, the Potency is reported as “inactive”. For `COc1cc(/C=C2\CCC(C3CCCC3)C2=O)ccc1OC(C)C` (configuration not stated), the Potency was inconclusive: 2.33 µM [inhibitor, partial curve, poor fit]. In the case of `CCC(=O)Nc1ccc(C(=O)N2CCN(C(=O)c3ccco3)CC2)cc1`, the Potency is reported as inconclusive: 18.5 µM [inhibitor, single point]. In the case of `O=C(NCCN1CCOCC1)c1ccc(NS(=O)(=O)c2ccccc2)cc1`, the Potency is reported as “inactive”. With `O=C(c1ccncc1)N1CCCC(N2CCN(c3ccc(F)cc3)CC2)C1` (configuration not stated) the Potency was “inactive”. With `Cc1c(NC(=O)c2cc3nc(-c4ccc(Cl)cc4)cc(C(F)(F)F)n3n2)c(=O)n(-c2ccccc2)n1C` the Potency was inconclusive: 13.1 µM [inhibitor, single point]. In the case of `COc1ccc(-n2c(=S)[nH]c3cc(C(=O)NCCCN4CCOCC4)ccc3c2=O)c(OC)c1`, the Potency is reported as inconclusive: 11.7 µM [inhibitor, partial curve, poor fit]. In the case of `O=C(Nc1c2c(nn1-c1ccc([N+](=O)[O-])cc1)CS(=O)(=O)C2)c1cccs1`, the Potency is reported as active: 5.86 µM. For `O=C(CCC(=O)N1CCOc2ccc(Cl)cc21)NCCCN1CCC(Cc2ccccc2)CC1`, the Potency was inconclusive: 13.1 µM [inhibitor, partial curve]. For `Cc1ccc(-n2nnnc2-c2cnc3ccc(Cl)cc3c2-c2ccccc2)cc1`, the Potency was inconclusive: 18.5 µM [inhibitor, single point]. In the case of `CC(=O)NC(CC(=O)N(C)Cc1cccc(Cl)c1Cl)c1ccccc1` (configuration not stated), the Potency is reported as inconclusive: 18.5 µM [inhibitor, single point]. With `CCOC(=O)C(N)CSC1CC(=O)N(CCc2ccccc2)C1=O` (configuration not stated) the Potency was “inactive”. In the case of `CCCCCC(=O)N1CCN(c2ccc(C(C)=O)cc2F)CC1`, the Potency is reported as active: 7.38 µM. In the case of `Cc1ccc(C(=O)COc2ccccc2-c2ccccc2)cc1C`, the Potency is reported as inconclusive: 2.94 µM [inhibitor, partial curve, poor fit]. In the case of `CCc1n[nH]c(=S)n1/N=C/c1ccccc1OCc1ccc(Cl)cc1`, the Potency is reported as inconclusive: 10.4 µM [inhibitor, single point]. For `NNC(=O)c1nc[nH]c1C(=O)Nc1ccccn1`, the Potency was inconclusive: 11.7 µM [inhibitor, single point]. In the case of `Cc1ccc(NC(=O)CNc2cccc(S(=O)(=O)N3CCCC3)c2)cc1F`, the Potency is reported as active: 5.22 µM. In the case of `N#Cc1c2c(c[nH]c1=O)CCN2Cc1ccccc1`, the Potency is reported as inconclusive: 10.4 µM [inhibitor, single point]. In the case of `COc1cc(/C=C/C(=O)c2ccc3c(c2)OCCO3)cc(Br)c1OCC(=O)N(C)C`, the Potency is reported as inconclusive: 18.5 µM [inhibitor, single point]. In the case of `O=C1CN(C(=O)c2ccc3nc(Cc4cccc(Cl)c4)oc3c2)CCN1`, the Potency is reported as inconclusive: 18.5 µM [inhibitor, single point]. For `Cc1nn(-c2ccc(F)cc2)c(Cl)c1C(=O)OC(C)C(=O)N(C)C1CCCCC1` (configuration not stated), the Potency was inconclusive: 9.28 µM [inhibitor, partial curve, poor fit].
